Data reported in PubChem BioAssay AID2685 (National Center for Advancing Translational Sciences (NCATS), 2010).
This is one part of the list. Shown are side measurements of this screen, not its main read-out; they come without a call. Compounds called inactive in the main read-out are mostly missing here. Potencies come from curve fits of mixed quality, noted in brackets.

Test: qHTS Assay for Lipid Storage Modulators in Drosophila S3 Cells;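 for cell number change: cells counted by Cell Tracker Red CMTPX staining in the red channel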
Conditions: BODIPY lipid droplet fluorescence, 18-24 h; for cell number change: measured here: cell count max response, cells fed with added oleic acid
In short: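 Drosophila S3 cells loaded with oleic acid (400 uM, as added) and compounds at several concentrations; lipid droplets imaged by 488-nm laser-scanning cytometry, 500–530 nm intensity and object ratio to cell channel. Percent activity normalized to 20 uM Triacsin C.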

[1] = measured here: lipid fluorescence (Fed channel) AC50, cells fed with added oleic acid
[2] = measured here: cell number channel AC50, cells fed with added oleic acid

SMILES	cell number change	AC50 [1]	AC50 [2]
CCNC(=O)CCn1nc(-c2ccc(C)cc2)c2ccccc2c1=O	20.5%		
O=C(CCCSc1ccccc1)Nc1nc(-c2ccco2)c(-c2ccco2)s1	-15.8%	6.51 µM [rising, partial curve, poor fit]	
O=C(CCc1ccccc1)NNC(=O)Cc1ccccc1	28.2%	20.6 µM [rising, partial curve]	
O=C(NCc1ccccn1)c1cccc(NS(=O)(=O)c2ccccc2)c1	-7.47%	16.4 µM [falling, single point]	
C=CCn1c(SC/C=C/c2ccccc2)nnc1-c1sc(N)nc1C		0.13 µM [rising, full curve, poor fit]	
COc1cccc(C(=O)OCCN(C)C(C)(C)C)c1	-59%	0.651 µM [rising, full curve]	0.92 µM [falling, full curve, poor fit]
CCCNC(=O)C(Cc1ccccc1C)NC(=O)c1ccc(C(F)(F)F)cc1 (stereo unspecified)	-3.49%	0.116 µM [rising, full curve]	
Cc1ccc(S(=O)(=O)N2CCN(C(=O)Cn3nc(C)c([N+](=O)[O-])c3C)CC2)cc1	42%		25.9 µM [rising, single point]
CCC(CC)C(=O)Nc1ccncc1	108%		16.4 µM [rising, partial curve]
Cc1n[nH]c(C)c1N1C(=O)c2cccc3cc(Br)cc(c23)C1=O	33.6%	13 µM [rising, partial curve]	8.2 µM [rising, partial curve]
COc1ccc(-c2cn[nH]c2C)cc1	24.1%	9.2 µM [rising, partial curve]	
CC1=NN(C(N)=S)C(=O)C1N=Nc1cccc(Cl)c1C (stereo unspecified)	-15.8%	29.1 µM [falling, single point]	
O=c1oc(CCO)cc2ccc(C#Cc3ccsc3)cc12	-11.9%	0.103 µM [falling, full curve, poor fit]	
COc1cc(NC(=O)COC(=O)CSc2ccc3ccccc3c2)c(C)cc1[N+](=O)[O-]	10.7%	1.3 µM [rising, partial curve]	0.82 µM [rising, full curve]
Oc1ccc(C2N=C(c3ccccc3)NC(c3ccccc3)=N2)cc1	35.5%		0.103 µM [rising, full curve]
COc1cc(SC)ccc1C(=O)Nc1ccccc1C#N	-26.1%	6.51 µM [rising, single point]	
COc1cc(CCC(=O)Nc2ccc(Br)c(C(F)(F)F)c2)cc(OC)c1OC	31.2%		5.8 µM [rising, partial curve]
Cc1ccc(/C=C2/SC(=Nc3ccc(F)cc3)NC2=O)s1	6.14%	0.517 µM [rising, single point]	
CC(C)(C)c1cc(=O)n(-c2ccccc2)[nH]1	-74.6%	25.9 µM [falling, partial curve]	20.6 µM [falling, partial curve]

Three compounds from above, ordered by molar mass, low to high.
SMILES	cell number change	AC50 [1]	AC50 [2]
CCC(CC)C(=O)Nc1ccncc1	108%		16.4 µM [rising, partial curve]
CC(C)(C)c1cc(=O)n(-c2ccccc2)[nH]1	-74.6%	25.9 µM [falling, partial curve]	20.6 µM [falling, partial curve]
COc1cc(CCC(=O)Nc2ccc(Br)c(C(F)(F)F)c2)cc(OC)c1OC	31.2%		5.8 µM [rising, partial curve]

Remaining list, next part:

SMILES	cell number change	AC50 [1]	AC50 [2]
COCCOC(=O)C1=C(C)NC2=C(C(=O)CC(C)(C)C2)C1c1cccnc1 (stereo unspecified)		0.13 µM [rising, full curve, poor fit]	1.84 µM [rising, partial curve]
O=C(Nc1ccc2c(c1)OCO2)c1noc2c1CCCC2	-11.7%		
O=C(O)c1cccc(NC(=O)c2ccc3c(c2)C(=O)N(c2ccccc2)C3=O)c1	31.3%		
Cc1ccccc1CCN(C(=O)Cn1nnc2ccccc21)C(C(=O)NCC1CCCO1)c1nc2ccccc2n1C (stereo unspecified)	9.85%	0.731 µM [rising, partial curve, poor fit]	
CCn1cc(C(=O)NCCCN2CCCC(C)C2)c(=O)c2cc(S(=O)(=O)N(C)C3CCCCC3)ccc21 (stereo unspecified)	-1.21%		
Cc1cccc(N2CCN(C(=O)CCNS(=O)(=O)c3ccc4c(c3)CCC(=O)N4)CC2)c1C		6.51 µM [rising, single point]	6.51 µM [rising, single point]
Fc1ccc(N2CCN(C3=Nc4cccc5cccc3c45)CC2)cc1	-19.5%	0.13 µM [falling, full curve, poor fit]	0.00461 µM [falling, full curve, poor fit]
Cc1cccc(NC(=O)c2ccc(CN3CCc4ccccc4C3)cc2)c1C	-30.2%		
Cc1cccc(CS(=O)(=O)Cc2ccc(C(=O)NCCc3ccccc3)o2)c1	-13.5%	29.1 µM [falling, single point]	
CCSc1nnc(NC(=O)c2nn(C(C)C)c(=O)c3ccccc23)s1	79.1%	20.6 µM [rising, single point]	16.4 µM [rising, single point]
Cc1ccc(NC(=O)Nc2cc(C(F)(F)F)c[nH]c2=O)cc1	12.6%	3.66 µM [rising, single point]	
CC(OC(=O)c1ccc2ncsc2c1)C(=O)Nc1ncc(Cl)cc1Cl (stereo unspecified)	22.4%	20.6 µM [rising, single point]	
OC(CNCC1COc2ccccc2O1)COc1ccccc1F (stereo unspecified)	-13.3%	0.103 µM [falling, full curve, poor fit]	0.13 µM [falling, full curve, poor fit]
CCOC(=O)N1CCN(C(=O)CSc2ccc3nnc(CCNC(=O)c4ccccc4)n3n2)CC1	-20.4%	0.103 µM [falling, full curve]	
COc1cc(/C=N\NC(=O)c2ccc(-c3ccccc3)cc2)ccc1OCC(N)=O	-3.47%	29.1 µM [rising, single point]	0.651 µM [rising, full curve]
CCCc1cc(=O)[nH]c(SCC(=O)c2cc(C)n(-c3c(C)n(C)n(-c4ccccc4)c3=O)c2C)n1	11.9%		
CSc1nc(-c2ccccc2)nc(N2CCOCC2)c1C(C)=O	-17.8%	11.6 µM [rising, single point]	
Cc1cc(Br)c(NC(=O)CCl)c(Br)c1	-35.4%	29.1 µM [falling, single point]	4.11 µM [falling, full curve]
